Assay results reported in patent US20120070446A1 (AstraZeneca / MedImmune, published 2012).
Results are given in words; binding and its absence hold for the method and conditions named. Some binding calls cover weakened binding; strength is not graded here.

Molecular target: RSV A2 F trimers (F open reading frame fused to isoleucine zipper domain followed by 8 HIS repeats, ILZ-8x HIS) (Respiratory Syncytial Virus A2) (UniProt P03420)
Experiment: intracellular staining of 293T cells transfected with the ILZ-8x HIS F construct

B1: AM22 (recombinant AM22 mAb, human IgG1/Kappa) (antibody, V domains shown)
VH: QVQLVQSGAEVKKPGATVKVSCKISGHTLIKLSIHWVRQAPGKGLEWMGGYEGEVDEIFYAQKFQHRLTVIADTATDTVYMELGRLTSDDTAVYFCGTLGVTVTEAGLGIDDYWGQGTLVTVSS
VL: EIVLTQSPGTLSLSPGERATLSCRASQIVSRNHLAWYQQKPGQAPRLLIFGASSRATGIPVRFSGSGSGTDFTLTINGLAPEDFAVYYCLSSDSSIFTFGPGTKVDFK
notes: also called AM22 antibody; AM22 monoclonal antibody
In the case of B1, the binding is reported as “binds”.
